Measurements as given in the supplement of paper PMC4604168 (melanoma cell lines).
The other results are listed elsewhere or left out. Repeats are few or missing, and single values can be far off.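 Cells were imaged in 1,536-well plates, and nuclei stained with an antibody against cleaved PARP were counted against all DNA-stained nuclei to give the apoptosis fraction. Screening doses were chosen to leave most cells alive, and resting and induced cleaved-PARP levels differ strongly between cell lines.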

Tested on: CBRC014 (line from a melanoma biopsy)
Assay: cleaved PARP positive nuclei fraction relative to DMSO control; melanoma cells; higher = more apoptosis
Settings: library dose: low library concentration; 72 h

Row | SMILES | cleaved PARP positive nuclei fraction
1 | C[C@]1(c2nc3c(C(N)=O)cccc3[nH]2)CCCN1 [Veliparib] + O=c1cc(-c2cccc3c2Sc2ccccc2S3)oc(N2CCOCC2)c1 [KU55933] (first compound 1.4 µM, partner dose 1 µM) | 108%
2 | CC(C)(C)c1cnc(CSc2cnc(NC(=O)C3CCNCC3)s2)o1 + COc1cc2ncnc(Nc3ccc(Oc4ccccc4)cc3)c2cc1OC [SrcI1] (first compound 0.01 µM, partner dose 2 µM) | 90.6%
3 | C#Cc1cccc(Nc2ncnc3cc(OCCOC)c(OCCOC)cc23)c1 [erlotinib] + OCCn1cc(-c2cnc3nnn(Cc4ccc5ncccc5c4)c3n2)cn1 [PF04217903] (first compound 0.8 µM, partner dose 1 µM) | 96.5%
4 | Cn1nnc2c(C(N)=O)ncn2c1=O [temozolomide] + Oc1nc(-c2ccc(C(F)(F)F)cc2)nc2c1CSCC2 [XAV939] (first compound 2 µM, partner dose 2 µM) | 102%
5 | COCC[n+]1c2c(n(Cc3cnccn3)c1C)C(=O)c1ccccc1C2=O + CN(C)S(=O)(=O)c1ccc2c(c1)/C(=C/c1cc3c([nH]1)CCCC3)C(=O)N2 [SU6656] (first compound 0.0004 µM, partner dose 0.4 µM) | 111%
6 | C=CCn1c(=O)c2cnc(Nc3ccc(N4CCN(C)CC4)cc3)nc2n1-c1cccc(C(C)(C)O)n1 + CN(NC(=O)CC(=O)NN(C)C(=S)c1ccccc1)C(=S)c1ccccc1 [STA4783] (first compound 0.02 µM, partner dose 0.006 µM) | 801%
7 | C=CCNC1=C2C[C@@H](C)C[C@H](OC)[C@H](O)[C@@H](C)/C=C(\C)[C@H](OC(N)=O)[C@@H](OC)/C=C\C=C(/C)C(=O)NC(=CC1=O)C2=O [Tanespimycin] + COc1ccc(-c2ccc3c(N4CCOCC4)nc(N4C[C@@H](C)O[C@@H](C)C4)nc3n2)cc1CO [KU0063794] (first compound 0.002 µM, partner dose 0.02 µM) | 110%
8 | Cc1ccc(NC(=O)c2cccc(N(C)C)c2)cc1NC(=O)c1ccc(O)cc1 + Oc1cc(-c2nc(-c3ccccc3)[nH]c2-c2ccncc2)ccc1Cl [L779450] (first compound 2 µM, partner dose 0.2 µM) | 123%
9 | Cn1nnc2c(C(N)=O)ncn2c1=O [temozolomide] + CCN(CC)CCCCNc1ncc2cc(-c3cc(OC)cc(OC)c3)c(NC(=O)NC(C)(C)C)nc2n1 [PD173074] (first compound 2 µM, partner dose 0.1 µM) | 103%
10 | CC(=O)c1c(C)c2cnc(Nc3ccc(N4CCNCC4)cn3)nc2n(C2CCCC2)c1=O [palbociclib] + COc1ccc(COc2ccc(Cc3cnc(N)nc3N)cc2OC)cc1 [GW2580] (first compound 0.04 µM, partner dose 1 µM) | 127%
11 | C[C@]1(c2nc3c(C(N)=O)cccc3[nH]2)CCCN1 [Veliparib] + COc1cc2c(Oc3ccc4[nH]c(C)cc4c3F)ncnc2cc1OCCCN1CCCC1 [cediranib] (first compound 1.4 µM, partner dose 0.4 µM) | 105%
12 | C=CCn1c(=O)c2cnc(Nc3ccc(N4CCN(C)CC4)cc3)nc2n1-c1cccc(C(C)(C)O)n1 + OCCn1cc(-c2cnc3nnn(Cc4ccc5ncccc5c4)c3n2)cn1 [PF04217903] (first compound 0.02 µM, partner dose 1 µM) | 205%

Quoted from the listing.
CC(C)(C)c1cnc(CSc2cnc(NC(=O)C3CCNCC3)s2)o1 + COc1cc2ncnc(Nc3ccc(Oc4ccccc4)cc3)c2cc1OC [SrcI1] (first compound 0.01 µM, partner dose 2 µM) | cleaved PARP positive nuclei fraction: 90.6%
C=CCn1c(=O)c2cnc(Nc3ccc(N4CCN(C)CC4)cc3)nc2n1-c1cccc(C(C)(C)O)n1 + CN(NC(=O)CC(=O)NN(C)C(=S)c1ccccc1)C(=S)c1ccccc1 [STA4783] (first compound 0.02 µM, partner dose 0.006 µM) | cleaved PARP positive nuclei fraction: 801%

Tested on: CBRC016 (line from a melanoma biopsy)
Assay: as above
Settings: library dose: low library concentration; 72 h

Row | SMILES | cleaved PARP positive nuclei fraction
13 | O=C(Nc1cccc(Cl)c1)Nc1ncc(CCNc2ncnc3ccsc23)s1 + O=C(O)c1ccc(-c2c[nH]c3ncc(-c4ccccc4)cc23)cc1C1CCCC1 [GSK650394] (first compound 0.0008 µM, partner dose 0.16 µM) | 362%
14 | O=C(Nc1cccc(Cl)c1)Nc1ncc(CCNc2ncnc3ccsc23)s1 + CN(NC(=O)CC(=O)NN(C)C(=S)c1ccccc1)C(=S)c1ccccc1 [STA4783] (first compound 0.0008 µM, partner dose 0.006 µM) | 223%
15 | Cn1nnc2c(C(N)=O)ncn2c1=O [temozolomide] + Cc1cc([N+](=O)[O-])ccc1NS(=O)(=O)c1cc(Cl)ccc1Cl [FH535] (first compound 2 µM, partner dose 1 µM) | 2320%
16 | Cc1nc(Nc2ncc(C(=O)Nc3c(C)cccc3Cl)s2)cc(N2CCN(CCO)CC2)n1 [dasatanib] + C[C@]1(c2nc3c(C(N)=O)cccc3[nH]2)CCCN1 [Veliparib] (first compound 0.004 µM, partner dose 1.4 µM) | 79.2%
17 | NC(=O)Nc1cc(-c2cccc(F)c2)sc1C(=O)N[C@H]1CCCNC1 + O=C(Nc1cccc(Cl)c1)Nc1ncc(CCNc2ncnc3ccsc23)s1 [SNS314] (first compound 0.02 µM, partner dose 0.0008 µM) | 194%
18 | CC1(C)NC(=O)N(c2ccc([N+](=O)[O-])c(C(F)(F)F)c2)C1=O [nilutamide] + CO[C@@H]1[C@H](N(C)C(=O)c2ccccc2)C[C@H]2O[C@]1(C)n1c3ccccc3c3c4c(c5c6ccccc6n2c5c31)C(=O)NC4 [Midostaurin] (first compound 1 µM, partner dose 0.08 µM) | 67.8%
19 | Cc1nc(Nc2ncc(C(=O)Nc3c(C)cccc3Cl)s2)cc(N2CCN(CCO)CC2)n1 [dasatanib] + Cn1cc(/C=C2\C(=O)Nc3cccnc32)c2ccccc21 [GW441756] (first compound 0.004 µM, partner dose 0.4 µM) | 19.7%
20 | OCc1c[nH]c2ccccc12 [Indole-3-carbinol] + Clc1ccc(Nc2nnc(Cc3ccncc3)c3ccccc23)cc1 [vatalanib] (first compound 0.8 µM, partner dose 2 µM) | 41.7%
21 | C=CCNC1=C2C[C@@H](C)C[C@H](OC)[C@H](O)[C@@H](C)/C=C(\C)[C@H](OC(N)=O)[C@@H](OC)/C=C\C=C(/C)C(=O)NC(=CC1=O)C2=O [Tanespimycin] + Cn1nnc2c(C(N)=O)ncn2c1=O [temozolomide] (first compound 0.002 µM, partner dose 2 µM) | 88.7%
22 | Cc1cc(N2CCOCC2)cc2[nH]c(-c3c(NC[C@@H](O)c4cccc(Cl)c4)cc[nH]c3=O)nc12 + Oc1nc(-c2ccc(C(F)(F)F)cc2)nc2c1CSCC2 [XAV939] (first compound 0.2 µM, partner dose 2 µM) | 37.9%
23 | Clc1ccc(Nc2nnc(Cc3ccncc3)c3ccccc23)cc1 [vatalanib] + COc1cc(Nc2ncc(F)c(Nc3ccc4c(n3)NC(=O)C(C)(C)O4)n2)cc(OC)c1OC [Tamatinib] (first compound 2 µM, partner dose 0.4 µM) | 136%
24 | Cc1cc(N2CCOCC2)cc2[nH]c(-c3c(NC[C@@H](O)c4cccc(Cl)c4)cc[nH]c3=O)nc12 + Oc1cc(-c2nc(-c3ccccc3)[nH]c2-c2ccncc2)ccc1Cl [L779450] (first compound 0.2 µM, partner dose 0.2 µM) | 63.8%
25 | C=CCn1c(=O)c2cnc(Nc3ccc(N4CCN(C)CC4)cc3)nc2n1-c1cccc(C(C)(C)O)n1 + Cc1cc([N+](=O)[O-])ccc1NS(=O)(=O)c1cc(Cl)ccc1Cl [FH535] (first compound 0.02 µM, partner dose 1 µM) | 2530%
26 | Cc1ccc(NC(=O)c2cccc(N(C)C)c2)cc1NC(=O)c1ccc(O)cc1 + CC(C)(C)c1cnc(CSc2cnc(NC(=O)C3CCNCC3)s2)o1 [SNS-032] (first compound 2 µM, partner dose 0.01 µM) | 115%
27 | Cc1nc(Nc2ncc(C(=O)Nc3c(C)cccc3Cl)s2)cc(N2CCN(CCO)CC2)n1 [dasatanib] + NC(=O)Nc1cc(-c2cccc(F)c2)sc1C(=O)N[C@H]1CCCNC1 [AZD7762] (first compound 0.004 µM, partner dose 0.02 µM) | 187%
28 | C#Cc1cccc(Nc2ncnc3cc(OCCOC)c(OCCOC)cc23)c1 [erlotinib] + COc1ccc(Cl)c(Nc2nc3ccccc3nc2NS(=O)(=O)c2cccc(NC(=O)C(C)(C)N)c2)c1 [XL147] (first compound 0.8 µM, partner dose 0.8 µM) | 50.3%
29 | CO[C@@H]1[C@H](N(C)C(=O)c2ccccc2)C[C@H]2O[C@]1(C)n1c3ccccc3c3c4c(c5c6ccccc6n2c5c31)C(=O)NC4 [Midostaurin] + c1cc(-c2cnn3cc(-c4ccc(OCCN5CCCCC5)cc4)cnc23)ccn1 [Dorsomorphin] (first compound 0.08 µM, partner dose 0.4 µM) | 123%
30 | NC(=O)Nc1cc(-c2cccc(F)c2)sc1C(=O)N[C@H]1CCCNC1 + N#Cc1c(O)c2c(-c3ccc(-c4ccccc4O)cc3)csc2[nH]c1=O [A769662] (first compound 0.02 µM, partner dose 2 µM) | 127%
31 | C[C@]1(c2nc3c(C(N)=O)cccc3[nH]2)CCCN1 [Veliparib] + Cc1cc(N2CCOCC2)cc2[nH]c(-c3c(NC[C@@H](O)c4cccc(Cl)c4)cc[nH]c3=O)nc12 [BMS536924] (first compound 1.4 µM, partner dose 0.2 µM) | 85.3%
32 | OCCn1cc(-c2cnc3nnn(Cc4ccc5ncccc5c4)c3n2)cn1 + CCN(CC)CCCCNc1ncc2cc(-c3cc(OC)cc(OC)c3)c(NC(=O)NC(C)(C)C)nc2n1 [PD173074] (first compound 1 µM, partner dose 0.1 µM) | 88.9%
